Experimental data reported in publication PMC7819943, “Rice protein-binding microarrays: a tool to detect cis-acting elements near promoter regions in rice”.
The list shows a part of the results.

By UniProt entry, the sequences of proteins in these tests, tags left out.
UniProt Q0JBA9, entry or part of it: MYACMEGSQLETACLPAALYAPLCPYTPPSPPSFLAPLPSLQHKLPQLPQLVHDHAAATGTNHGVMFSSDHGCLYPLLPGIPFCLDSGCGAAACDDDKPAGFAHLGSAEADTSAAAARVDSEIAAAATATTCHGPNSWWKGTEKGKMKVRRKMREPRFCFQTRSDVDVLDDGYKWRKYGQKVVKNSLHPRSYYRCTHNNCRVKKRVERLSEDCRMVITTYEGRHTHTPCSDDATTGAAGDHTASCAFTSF

Target: OsWRKY34 (Oryza sativa, UniProt Q0JBA9 1-250)
Assay: protein-binding microarray (RPBM); PBS, 2% BSA, 51.3 ng/ul salmon testes DNA, 50 uM zinc acetate, 200 nM TF, 25 C, 1 h; high values mean tight binding
Details: protein: recombinant; tags: N-terminal polyhistidine and DsRed monomer fusion (pET32a); label: CyDye5-dUTP incorporated in the synthesized complementary strand; 3' TTTTT single-stranded linker to array surface; dsDNA, one strand shown
How it was run: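 Per-feature fluorescence intensity (arbitrary units), read on an Axon 4000B scanner, is the binding signal. Transcription factors carrying an N-terminal polyhistidine tag and DsRed fusion were expressed in E. coli BL21-CodonPlus and purified on Ni–NTA. A custom Agilent array, made double-stranded by primer extension with Cy5-dUTP and blocked with 2% BSA, was incubated with 200 nM protein in PBS, 2% BSA, salmon testes DNA and 50 µM zinc acetate at 25 °C for 1 h and then washed.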

| Sequence | binding signal |
| --- | --- |
| GCACATTAACGCACGCCACCCACCGCCACCTACTCGCCACCGGAGTCACCTAGTGCAG | 9060 fluorescence intensity (a.u.) |
| TATCACCTCGTTTTCTTTCCATTGTGCTACCAACTGTGCTCGGAGTCACCTAGTGCAG | 8260 fluorescence intensity (a.u.) |
| TTCCTTCAAGTCACTTTGTTTTCATATCATGAACCTTCCACGGAGTCACCTAGTGCAG | 8050 fluorescence intensity (a.u.) |
| TCATGCCTTGATTTTTCTCTGTTTTGAACTGCAATTGCAGCGGAGTCACCTAGTGCAG | 8910 fluorescence intensity (a.u.) |
| ATGAGGAATGAAGTACTCTCCACCATTTTCTTGCTCCTCACGGAGTCACCTAGTGCAG | 8420 fluorescence intensity (a.u.) |
| AGTCAACGTTTCTATTAGAAAATTTTCCCTTTGCCCTTAACGGAGTCACCTAGTGCAG | 9670 fluorescence intensity (a.u.) |
| CTGTTATTATTAAATCATCAAATTCTTTCTTGCACCAGTTCGGAGTCACCTAGTGCAG | 8260 fluorescence intensity (a.u.) |
| TTATTCCACTCTCCAAAACGTCATTACTGATTTGCTTTTCCGGAGTCACCTAGTGCAG | 8100 fluorescence intensity (a.u.) |
| CTTCCATCCACGATCCAATATGACAATATGACATCCAACACGGAGTCACCTAGTGCAG | 9210 fluorescence intensity (a.u.) |
| ACAAGTGAATATAACACTAACCTCGTATGTCATGTTGTCTCGGAGTCACCTAGTGCAG | 8980 fluorescence intensity (a.u.) |
| ACCACCGCCGCGGCGGCGTCGCCCACGCCGTGCCGCCCCGCGGAGTCACCTAGTGCAG | 8160 fluorescence intensity (a.u.) |
| CCACCCCACGCGCCGCGCGGTCTCGCTTCGCCTCCGCGCGCGGAGTCACCTAGTGCAG | 10500 fluorescence intensity (a.u.) |
| GTAGCCCACACGTGTTATCGTTGCCAAGCTTGCCACCCAACGGAGTCACCTAGTGCAG | 11900 fluorescence intensity (a.u.) |
| AAGTTGGAAGTTTGTGTGTGTAGGAAAGTTTGATGTGATACGGAGTCACCTAGTGCAG | 9600 fluorescence intensity (a.u.) |
| CGGGGAGTCGTTGCTGTTCTTGTTCTTGGTCGAGGTTGAGCGGAGTCACCTAGTGCAG | 14500 fluorescence intensity (a.u.) |
| CCACCAGCGCCACCGCTTCTTCTTCTTTCGATTCTTCTTCCGGAGTCACCTAGTGCAG | 9450 fluorescence intensity (a.u.) |
| CTTGATGTGGTTGGAACTTGGAAGGCAGATTTGCTTGAACCGGAGTCACCTAGTGCAG | 9280 fluorescence intensity (a.u.) |
| GCCGTCCCCAGCCGCGACCACCGTCGCCGTCCGCACCGTCCGGAGTCACCTAGTGCAG | 8320 fluorescence intensity (a.u.) |
| CTGTCCTCTTTTGTCGATCCTGTTCAGTTGCTTGTCGCAACGGAGTCACCTAGTGCAG | 8390 fluorescence intensity (a.u.) |
| GTTTACATGTGTAGATCTAATGATGCGTTCAATCTAGTTTCGGAGTCACCTAGTGCAG | 8860 fluorescence intensity (a.u.) |
| GGGATTGGATTGGGTTGGGTTGGATTGGAGAGAGAGAATGCGGAGTCACCTAGTGCAG | 31400 fluorescence intensity (a.u.) |

| Sequence | binding signal |
| --- | --- |
| ACAGCTCCAAATTTTGCCTCCGTTGTCCTTTTTTTCTCTCCGGAGTCACCTAGTGCAG | 9340 fluorescence intensity (a.u.) |
| TGCTAGGACACTCTCCCCATCCTTGGAATCTGTTGCATTCCGGAGTCACCTAGTGCAG | 8900 fluorescence intensity (a.u.) |
| CTCTAATACATTGTCTCGTTTTTCTCTATAGACTATCTCCCGGAGTCACCTAGTGCAG | 11900 fluorescence intensity (a.u.) |
| ATTTCCAAGCTCTCTTTGCAGTTACTCCTCGGTGTGCTCCCGGAGTCACCTAGTGCAG | 8250 fluorescence intensity (a.u.) |
| AGTAGTACTAGGAGTGGTGCTCACTTGCACACTATTTCACCGGAGTCACCTAGTGCAG | 8050 fluorescence intensity (a.u.) |
| ATTACACCCTAGCATGTACATATTCTTCTATAATGTGTTACGGAGTCACCTAGTGCAG | 11100 fluorescence intensity (a.u.) |
| TGCTATCACTCTCTCACCACCGCTAGAGATCACCATTGTGCGGAGTCACCTAGTGCAG | 9110 fluorescence intensity (a.u.) |
| ACACATCATCCACGTACTGAGGCCACACACTGATCTATTACGGAGTCACCTAGTGCAG | 11400 fluorescence intensity (a.u.) |
| CGAGCTGGCGCACTGGTCCACACTATTCTCCACCCGCTTCCGGAGTCACCTAGTGCAG | 8960 fluorescence intensity (a.u.) |
| ACTAAGTGCGTGATTGTTTCAGATTTGTTTGGGTTGCGGTCGGAGTCACCTAGTGCAG | 9410 fluorescence intensity (a.u.) |
| CACTCCGTCACGGCCGCCACCGCGACCACTTTTTCCCGTCCGGAGTCACCTAGTGCAG | 9430 fluorescence intensity (a.u.) |
| CCACTCACTCTGTGTTTCACTTGCTGCCTTTCAGTTGCAACGGAGTCACCTAGTGCAG | 8820 fluorescence intensity (a.u.) |
| ACTAACTTAAATATAACCATCACTTGCTAATACTTTATCCCGGAGTCACCTAGTGCAG | 9100 fluorescence intensity (a.u.) |
| CCTATAAATACCTTGTTGCCATCCGTTTCCAGTTCATCATCGGAGTCACCTAGTGCAG | 10400 fluorescence intensity (a.u.) |
| TCAGTATTTCCAAATATGAGTTTTCTTGATGTTTCTAGCACGGAGTCACCTAGTGCAG | 8040 fluorescence intensity (a.u.) |
| CTGTAGTCCGTTGCTTTTCTCTTTTCCTTTATCTCTTTAACGGAGTCACCTAGTGCAG | 9590 fluorescence intensity (a.u.) |
| AATACAGGTGAGTTGTTGCTTCCTTACCATCATTTTCTAACGGAGTCACCTAGTGCAG | 11900 fluorescence intensity (a.u.) |
| GCCATTCTTGGTTGGATTAGGGTTAGGGTTCGTCGGGATGCGGAGTCACCTAGTGCAG | 9040 fluorescence intensity (a.u.) |
| TTTTTTGTTTTTTCTTTGAATTCTTTCCTTACGATTTTTGCGGAGTCACCTAGTGCAG | 13400 fluorescence intensity (a.u.) |
| AATGTACGGCTATACTCTACTCACTTCATCGGTAAATACACGGAGTCACCTAGTGCAG | 10700 fluorescence intensity (a.u.) |
| ATGTTTTATTTCCATCTCTCCAGATGTTGCTAAATTAGTCCGGAGTCACCTAGTGCAG | 9590 fluorescence intensity (a.u.) |

Rewritten field by field: part of the list above.
AATACAGGTGAGTTGTTGCTTCCTTACCATCATTTTCTAACGGAGTCACCTAGTGCAG
  binding signal: 11900 fluorescence intensity (a.u.)
GCCATTCTTGGTTGGATTAGGGTTAGGGTTCGTCGGGATGCGGAGTCACCTAGTGCAG
  binding signal: 9040 fluorescence intensity (a.u.)
